In publication PMC6828672 one finds binding data, which are given here for one molecule.

This assay has as its target T1, human KCASH2, N-terminally HA and Flag tagged (human) (UniProt Q4G0X4).
T1 sequence: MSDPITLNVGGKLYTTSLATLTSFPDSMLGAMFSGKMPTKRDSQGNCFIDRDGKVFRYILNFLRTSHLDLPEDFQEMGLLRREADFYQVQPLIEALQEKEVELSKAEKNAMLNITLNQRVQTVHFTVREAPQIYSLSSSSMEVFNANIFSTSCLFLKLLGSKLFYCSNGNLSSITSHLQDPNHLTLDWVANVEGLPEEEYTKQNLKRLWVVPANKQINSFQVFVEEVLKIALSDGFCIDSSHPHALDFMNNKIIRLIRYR
Kind of assay: affinity purification with mass spectrometry; sequential double co-immunoprecipitation (HA and Flag) of the lysate of HEK293T cells transfected with HA-Flag-KCASH2; MALDI-TOF mass spectrometry; polypeptides with ≥3 peptides selected.

No constants are given. Whether binding was seen depends on the method and setting. Binding seen in cells or lysates may run through a third protein. These calls come from enrichment with a bait or labelling near it, and not all partners need be listed. Sequences can lack the tags named with a protein.

B1: Potassium Channel Tetramerization Domain Containing 15 (KCTD15), found in the KCASH2 co-immunoprecipitate of HEK293T cells (protein, UniProt Q96SI1 1-283)
chain: MPHRKERPSGSSLHTHGSTGTAEGGNMSRLSLTRSPVSPLAAQGIPLPAQLTKSNAPVHIDVGGHMYTSSLATLTKYPDSRISRLFNGTEPIVLDSLKQHYFIDRDGEIFRYVLSFLRTSKLLLPDDFKDFSLLYEEARYYQLQPMVRELERWQQEQEQRRRSRACDCLVVRVTPDLGERIALSGEKALIEEVFPETGDVMCNSVNAGWNQDPTHVIRFPLNGYCRLNSVQVLERLFQRGFSVAASCGGGVDSSQFSEYVLCREERRPQPTPTAVRIKQEPLD
In the case of B1, the binding entry is recorded as “binds”.
